# Experimental data published in article PMC11066040, “Nuclear phosphoinositide signaling promotes YAP/TAZ-TEAD transcriptional activity in breast cancer” (The EMBO Journal, 2024).
# Chains of the proteins cited; added tags and fusions are not shown.
# UniProt Q8NFU5: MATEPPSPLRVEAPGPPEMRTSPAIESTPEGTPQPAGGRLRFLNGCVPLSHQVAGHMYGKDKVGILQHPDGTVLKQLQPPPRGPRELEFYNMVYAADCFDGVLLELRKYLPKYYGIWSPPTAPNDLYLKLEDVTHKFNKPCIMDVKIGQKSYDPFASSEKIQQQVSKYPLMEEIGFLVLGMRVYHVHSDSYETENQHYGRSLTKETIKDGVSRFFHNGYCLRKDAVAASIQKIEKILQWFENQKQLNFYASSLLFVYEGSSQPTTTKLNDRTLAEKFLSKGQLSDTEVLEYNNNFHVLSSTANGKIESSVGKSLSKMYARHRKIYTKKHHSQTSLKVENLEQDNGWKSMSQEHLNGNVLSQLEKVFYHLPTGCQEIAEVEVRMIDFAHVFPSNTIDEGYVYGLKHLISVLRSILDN
# UniProt Q99755: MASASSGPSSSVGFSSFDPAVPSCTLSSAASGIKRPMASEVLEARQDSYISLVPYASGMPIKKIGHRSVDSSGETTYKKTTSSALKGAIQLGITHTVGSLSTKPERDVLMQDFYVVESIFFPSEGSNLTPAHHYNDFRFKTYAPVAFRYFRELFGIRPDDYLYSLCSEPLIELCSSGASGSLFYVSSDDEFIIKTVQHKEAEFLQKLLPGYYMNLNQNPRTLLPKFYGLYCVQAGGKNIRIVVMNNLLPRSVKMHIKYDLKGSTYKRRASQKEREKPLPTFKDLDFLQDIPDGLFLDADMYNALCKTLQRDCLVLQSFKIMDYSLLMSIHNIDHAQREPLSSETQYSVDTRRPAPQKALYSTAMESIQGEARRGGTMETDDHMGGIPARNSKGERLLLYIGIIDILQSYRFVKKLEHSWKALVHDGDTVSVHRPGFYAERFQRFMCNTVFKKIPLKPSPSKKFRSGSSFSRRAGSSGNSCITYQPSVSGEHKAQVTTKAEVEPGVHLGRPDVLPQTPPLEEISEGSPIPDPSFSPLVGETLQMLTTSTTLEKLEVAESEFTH
# No constants are given. Whether binding was seen depends on the method and setting. For some of these results: In cells and extracts the contact can be indirect. Some results given as binding are weak or reduced against the parent protein; the word gives no strength. For some of these results: Sequences can lack the tags named with a protein.
# What was measured:
# [1] = target: T1, HA-tagged p73 (UniProt O15350); assay: co-IP; tagged proteins co-transfected in HEK293 cells for 48 h; lysis in 1% Brij58, 150 mM NaCl, 20 mM HEPES pH 7.4; precipitated by anti-HA, anti-Myc or anti-Flag antibody, partner detected by its tag; in one panel cells treated with 5 μM LPA for 2 h
# T1 sequence: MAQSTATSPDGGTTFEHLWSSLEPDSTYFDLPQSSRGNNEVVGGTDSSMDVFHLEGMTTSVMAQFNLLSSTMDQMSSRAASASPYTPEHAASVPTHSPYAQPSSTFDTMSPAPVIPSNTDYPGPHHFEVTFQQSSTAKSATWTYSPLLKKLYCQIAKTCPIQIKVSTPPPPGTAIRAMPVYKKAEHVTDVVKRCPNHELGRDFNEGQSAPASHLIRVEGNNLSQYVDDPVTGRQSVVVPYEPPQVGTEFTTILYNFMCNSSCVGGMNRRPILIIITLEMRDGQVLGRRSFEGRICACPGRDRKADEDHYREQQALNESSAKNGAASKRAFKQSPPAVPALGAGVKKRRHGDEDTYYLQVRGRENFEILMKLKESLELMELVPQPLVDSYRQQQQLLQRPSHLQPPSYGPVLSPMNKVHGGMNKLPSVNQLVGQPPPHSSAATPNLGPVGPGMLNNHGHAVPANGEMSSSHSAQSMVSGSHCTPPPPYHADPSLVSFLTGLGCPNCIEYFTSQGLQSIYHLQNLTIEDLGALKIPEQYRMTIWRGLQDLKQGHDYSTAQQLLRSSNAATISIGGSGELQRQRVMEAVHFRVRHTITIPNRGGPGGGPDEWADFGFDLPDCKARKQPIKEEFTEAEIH
# [2] = target: Myc-tagged IPMK, wild type (UniProt Q8NFU5); assay: as above
# [3] = target: GST-3Q mutant YAP (UniProt P46937); assay: pull-down; 0.1 μM GST alone or GST-YAP (WT, 2Q, 3Q) prebound to glutathione beads, incubated with 0.05 μM His6-tagged PIPKIα or IPMK, 1 h at 25 °C; immunoblotting; both purified
# [4] = target: GST-tagged YAP (Yes-associated protein 1), wild type (UniProt P46937); assay: as above
# [5] = target: endogenous YAP (Yes-associated protein 1) (human (endogenous in MDA-MB-231)) (UniProt P46937); assay: co-IP; endogenous YAP immunoprecipitated from MDA-MB-231 lysates; cells stimulated with 10% serum or 5 μM LPA for 1 h after starvation, or grown in 10% serum and treated with LPA, SDF-1α or EGF for 90 min
# [6] = target: endogenous YAP (Yes-associated protein 1) (human (endogenous in MDA-MB-231)) (UniProt P46937); assay: proximity ligation; fixed MDA-MB-231 cells, serum-starved and then stimulated with 10% serum for 1 h; endogenous proteins; PLA puncta counted by confocal microscopy
# [7] = target: endogenous YAP (Yes-associated protein 1) (human (endogenous in MDA-MB-231)) (UniProt P46937); assay: proximity ligation; fixed serum-starved MDA-MB-231 cells; endogenous proteins; PLA puncta counted by confocal microscopy
# [8] = target: endogenous YAP (Yes-associated protein 1) (human (endogenous in MDA-MB-231)) (UniProt P46937); assay: co-IP; endogenous YAP immunoprecipitated from lysates of serum-starved MDA-MB-231 cells
Substance,binding [1],binding [5],binding [6],binding [7],binding [8],further results
Flag-3Q mutant YAP (from UniProt P46937 1-504),binds,–,–,–,–,–
"Flag-tagged YAP, wild type (from UniProt P46937 1-504)",binds,–,–,–,–,binding [2]: binds
"His6-tagged IPMK (inositol polyphosphate multikinase), wild type (from UniProt Q8NFU5 1-416) (enzyme)",–,–,–,–,–,binding [3]: binds; binding [4]: binds
endogenous IPMK (from UniProt Q8NFU5 1-416) (enzyme),–,binds,binds,binds weakly,binds weakly,–
endogenous PIPKIα (from UniProt Q99755 1-562) (enzyme),–,binds,binds,binds weakly,binds weakly,–
